Assay results from patent publication US11268958B2, “Bacteria-specific labeled substrtates as imaging biomarkers to diagnose, locate, and monitor infections” (THE JOHNS HOPKINS UNIVERSITY, priority 2012, dated 2022).
Some entries share one result that the patent states for a list of compounds. For at least one compound, name, drawing or mass did not settle the structure.

How the values were obtained:
[1] = test system: J774 macrophages; experiment: Tracer uptake in host cells (J774 macrophages); format: cell-based; settings: eukaryotic J774 macrophages, ^3H labeled tracers
[2] = test system: WEHI 164 fibroblasts; experiment: Tracer uptake in WEHI 164 fibroblasts; format: cell-based; settings: ^3H labeled tracers

Work on `Nc1ccc(C(=O)O)c(F)c1` [2-F-PABA, 2-fluoro-PABA] yielded an intracellular uptake [1] of under 1% and an intracellular uptake [2] of under 1%.
